# Some of the results follow. Most entries show no effect beyond the scatter of the controls.
# The chains behind the UniProt entries cited, without tags or fusion partners. Where a name states a change or a piece, a line headed by the entry shows the natural chain unless it says otherwise.
# UniProt Q53GT1: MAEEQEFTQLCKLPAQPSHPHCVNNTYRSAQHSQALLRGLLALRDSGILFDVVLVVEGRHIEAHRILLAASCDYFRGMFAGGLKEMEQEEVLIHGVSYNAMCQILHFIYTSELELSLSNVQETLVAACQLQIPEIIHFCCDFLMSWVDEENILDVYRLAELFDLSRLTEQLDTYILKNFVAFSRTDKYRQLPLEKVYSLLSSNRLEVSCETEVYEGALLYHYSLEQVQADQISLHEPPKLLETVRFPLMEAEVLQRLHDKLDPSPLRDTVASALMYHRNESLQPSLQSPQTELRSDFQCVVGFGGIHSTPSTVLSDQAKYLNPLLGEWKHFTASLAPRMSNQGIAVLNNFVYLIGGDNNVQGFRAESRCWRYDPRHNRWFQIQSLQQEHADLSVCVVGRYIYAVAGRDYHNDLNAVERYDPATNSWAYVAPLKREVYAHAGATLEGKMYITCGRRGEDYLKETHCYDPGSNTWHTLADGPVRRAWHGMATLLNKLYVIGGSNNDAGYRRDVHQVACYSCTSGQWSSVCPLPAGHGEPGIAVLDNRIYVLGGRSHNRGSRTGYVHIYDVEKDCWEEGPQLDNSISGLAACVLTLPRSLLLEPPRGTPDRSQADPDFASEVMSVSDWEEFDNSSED
# UniProt Q5TAX3: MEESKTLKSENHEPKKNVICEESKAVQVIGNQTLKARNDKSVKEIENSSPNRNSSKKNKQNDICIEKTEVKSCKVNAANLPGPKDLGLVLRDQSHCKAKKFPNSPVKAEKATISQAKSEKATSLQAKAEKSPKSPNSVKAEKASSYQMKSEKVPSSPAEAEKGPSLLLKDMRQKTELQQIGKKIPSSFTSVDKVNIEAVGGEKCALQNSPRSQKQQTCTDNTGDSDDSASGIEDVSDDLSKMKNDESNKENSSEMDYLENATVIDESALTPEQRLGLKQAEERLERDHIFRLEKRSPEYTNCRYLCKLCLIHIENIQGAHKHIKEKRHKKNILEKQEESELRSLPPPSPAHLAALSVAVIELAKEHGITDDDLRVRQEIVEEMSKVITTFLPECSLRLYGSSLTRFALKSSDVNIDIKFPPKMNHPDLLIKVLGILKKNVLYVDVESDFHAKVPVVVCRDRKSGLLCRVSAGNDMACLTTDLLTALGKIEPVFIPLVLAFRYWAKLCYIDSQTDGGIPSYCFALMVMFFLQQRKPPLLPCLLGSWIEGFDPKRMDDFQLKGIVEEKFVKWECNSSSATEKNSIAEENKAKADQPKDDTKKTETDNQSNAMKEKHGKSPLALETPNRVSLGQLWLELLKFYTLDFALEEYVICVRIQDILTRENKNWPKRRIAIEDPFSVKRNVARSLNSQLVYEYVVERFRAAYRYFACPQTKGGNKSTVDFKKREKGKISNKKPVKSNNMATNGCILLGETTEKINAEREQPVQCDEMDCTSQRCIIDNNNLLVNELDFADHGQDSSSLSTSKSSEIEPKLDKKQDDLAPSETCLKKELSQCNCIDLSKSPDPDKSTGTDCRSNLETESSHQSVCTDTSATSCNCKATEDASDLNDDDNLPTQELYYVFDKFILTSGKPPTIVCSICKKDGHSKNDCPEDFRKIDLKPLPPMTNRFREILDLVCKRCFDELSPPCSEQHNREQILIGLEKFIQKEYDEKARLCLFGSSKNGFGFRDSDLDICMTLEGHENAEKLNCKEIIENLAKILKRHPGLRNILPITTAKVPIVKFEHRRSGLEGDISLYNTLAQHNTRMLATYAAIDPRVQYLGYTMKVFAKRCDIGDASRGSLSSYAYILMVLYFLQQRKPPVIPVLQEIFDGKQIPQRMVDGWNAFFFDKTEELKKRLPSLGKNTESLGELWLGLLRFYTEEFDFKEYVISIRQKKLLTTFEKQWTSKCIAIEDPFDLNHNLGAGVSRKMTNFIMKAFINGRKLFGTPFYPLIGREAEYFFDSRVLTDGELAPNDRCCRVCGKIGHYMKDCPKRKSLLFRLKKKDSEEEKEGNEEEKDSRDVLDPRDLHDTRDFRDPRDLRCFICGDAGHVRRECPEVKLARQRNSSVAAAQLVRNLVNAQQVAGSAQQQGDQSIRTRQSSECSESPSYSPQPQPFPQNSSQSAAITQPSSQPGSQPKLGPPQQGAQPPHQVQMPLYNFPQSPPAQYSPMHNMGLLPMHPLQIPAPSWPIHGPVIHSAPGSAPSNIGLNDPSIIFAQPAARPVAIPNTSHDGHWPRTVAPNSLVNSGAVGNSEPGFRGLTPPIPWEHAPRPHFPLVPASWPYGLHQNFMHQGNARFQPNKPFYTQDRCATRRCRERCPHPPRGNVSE
# UniProt Q53RE8: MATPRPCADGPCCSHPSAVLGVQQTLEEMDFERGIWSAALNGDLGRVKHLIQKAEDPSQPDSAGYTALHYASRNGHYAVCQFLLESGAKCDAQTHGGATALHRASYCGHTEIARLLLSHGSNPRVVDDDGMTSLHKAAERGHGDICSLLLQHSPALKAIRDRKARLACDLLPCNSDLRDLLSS
# UniProt Q53T59: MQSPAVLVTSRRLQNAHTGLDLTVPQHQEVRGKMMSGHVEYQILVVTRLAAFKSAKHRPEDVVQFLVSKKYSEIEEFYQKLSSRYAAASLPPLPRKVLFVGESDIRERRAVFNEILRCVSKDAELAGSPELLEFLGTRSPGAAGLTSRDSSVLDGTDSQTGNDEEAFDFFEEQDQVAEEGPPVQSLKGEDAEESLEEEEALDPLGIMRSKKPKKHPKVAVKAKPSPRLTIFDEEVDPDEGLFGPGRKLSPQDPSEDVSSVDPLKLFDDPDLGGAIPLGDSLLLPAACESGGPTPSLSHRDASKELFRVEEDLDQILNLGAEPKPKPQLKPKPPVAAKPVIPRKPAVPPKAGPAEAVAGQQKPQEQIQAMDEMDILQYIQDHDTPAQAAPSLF
# UniProt Q53HC9: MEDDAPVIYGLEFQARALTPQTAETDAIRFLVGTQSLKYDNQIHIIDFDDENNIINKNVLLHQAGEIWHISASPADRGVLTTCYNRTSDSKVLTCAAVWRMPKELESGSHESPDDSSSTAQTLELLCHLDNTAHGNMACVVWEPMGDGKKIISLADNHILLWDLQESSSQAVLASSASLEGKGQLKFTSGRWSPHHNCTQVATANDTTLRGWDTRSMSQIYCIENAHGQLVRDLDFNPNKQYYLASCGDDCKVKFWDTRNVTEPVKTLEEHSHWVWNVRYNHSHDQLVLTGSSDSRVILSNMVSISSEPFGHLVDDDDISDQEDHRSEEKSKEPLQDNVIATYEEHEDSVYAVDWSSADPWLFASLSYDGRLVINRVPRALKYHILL
# UniProt Q5T0F9: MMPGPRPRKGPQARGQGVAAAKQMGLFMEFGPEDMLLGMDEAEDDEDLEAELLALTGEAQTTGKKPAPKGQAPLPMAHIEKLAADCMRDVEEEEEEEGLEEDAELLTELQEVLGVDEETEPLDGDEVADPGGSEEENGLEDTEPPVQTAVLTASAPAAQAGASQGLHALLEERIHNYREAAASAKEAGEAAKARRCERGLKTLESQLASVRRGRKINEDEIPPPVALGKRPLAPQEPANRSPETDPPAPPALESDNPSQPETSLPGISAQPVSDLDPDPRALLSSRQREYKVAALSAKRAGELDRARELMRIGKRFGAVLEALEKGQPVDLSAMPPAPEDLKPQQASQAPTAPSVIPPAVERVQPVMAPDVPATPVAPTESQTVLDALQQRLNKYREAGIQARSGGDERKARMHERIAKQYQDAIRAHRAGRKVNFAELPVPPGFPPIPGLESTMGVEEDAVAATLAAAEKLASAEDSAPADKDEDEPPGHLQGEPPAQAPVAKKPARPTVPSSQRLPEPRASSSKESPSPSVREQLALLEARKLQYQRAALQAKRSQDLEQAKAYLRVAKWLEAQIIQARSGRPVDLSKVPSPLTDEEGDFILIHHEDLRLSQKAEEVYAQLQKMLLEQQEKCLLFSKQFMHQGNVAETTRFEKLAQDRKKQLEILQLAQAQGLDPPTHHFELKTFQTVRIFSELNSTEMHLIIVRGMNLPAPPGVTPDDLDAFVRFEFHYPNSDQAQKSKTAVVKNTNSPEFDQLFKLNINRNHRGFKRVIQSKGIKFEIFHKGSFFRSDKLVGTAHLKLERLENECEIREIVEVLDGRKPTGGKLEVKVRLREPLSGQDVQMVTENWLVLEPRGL
# UniProt Q4J6C6, whole entry: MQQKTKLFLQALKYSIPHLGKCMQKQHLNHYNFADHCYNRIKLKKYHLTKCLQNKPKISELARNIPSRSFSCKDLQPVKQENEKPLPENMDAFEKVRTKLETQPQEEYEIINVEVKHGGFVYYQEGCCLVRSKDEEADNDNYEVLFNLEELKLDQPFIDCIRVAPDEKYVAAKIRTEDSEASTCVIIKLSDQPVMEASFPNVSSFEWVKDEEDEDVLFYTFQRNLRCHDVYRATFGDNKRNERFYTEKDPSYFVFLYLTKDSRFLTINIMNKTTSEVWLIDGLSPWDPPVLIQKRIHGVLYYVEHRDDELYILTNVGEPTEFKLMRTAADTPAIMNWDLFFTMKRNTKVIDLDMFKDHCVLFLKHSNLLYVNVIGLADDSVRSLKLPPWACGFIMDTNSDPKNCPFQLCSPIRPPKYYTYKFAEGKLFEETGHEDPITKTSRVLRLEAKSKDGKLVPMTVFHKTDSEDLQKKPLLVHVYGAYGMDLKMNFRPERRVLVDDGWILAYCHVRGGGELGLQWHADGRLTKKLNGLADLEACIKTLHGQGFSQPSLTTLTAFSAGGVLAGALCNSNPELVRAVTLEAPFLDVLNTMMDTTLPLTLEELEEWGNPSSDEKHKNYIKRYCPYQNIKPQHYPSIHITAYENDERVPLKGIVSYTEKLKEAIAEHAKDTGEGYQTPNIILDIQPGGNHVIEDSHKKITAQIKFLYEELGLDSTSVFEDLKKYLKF
# UniProt Q5HY98: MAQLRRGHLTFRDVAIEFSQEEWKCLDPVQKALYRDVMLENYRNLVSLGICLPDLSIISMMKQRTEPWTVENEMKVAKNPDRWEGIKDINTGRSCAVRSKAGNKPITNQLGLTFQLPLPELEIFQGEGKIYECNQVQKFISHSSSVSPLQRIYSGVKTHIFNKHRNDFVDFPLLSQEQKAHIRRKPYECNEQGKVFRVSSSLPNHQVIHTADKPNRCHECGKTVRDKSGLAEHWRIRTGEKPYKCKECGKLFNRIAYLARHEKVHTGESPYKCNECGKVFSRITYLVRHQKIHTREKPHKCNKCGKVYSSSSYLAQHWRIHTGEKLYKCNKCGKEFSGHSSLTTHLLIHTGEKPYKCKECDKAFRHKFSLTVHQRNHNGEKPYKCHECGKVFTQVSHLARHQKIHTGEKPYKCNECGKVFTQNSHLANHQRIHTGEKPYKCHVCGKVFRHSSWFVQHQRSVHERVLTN
# UniProt Q5T2N8: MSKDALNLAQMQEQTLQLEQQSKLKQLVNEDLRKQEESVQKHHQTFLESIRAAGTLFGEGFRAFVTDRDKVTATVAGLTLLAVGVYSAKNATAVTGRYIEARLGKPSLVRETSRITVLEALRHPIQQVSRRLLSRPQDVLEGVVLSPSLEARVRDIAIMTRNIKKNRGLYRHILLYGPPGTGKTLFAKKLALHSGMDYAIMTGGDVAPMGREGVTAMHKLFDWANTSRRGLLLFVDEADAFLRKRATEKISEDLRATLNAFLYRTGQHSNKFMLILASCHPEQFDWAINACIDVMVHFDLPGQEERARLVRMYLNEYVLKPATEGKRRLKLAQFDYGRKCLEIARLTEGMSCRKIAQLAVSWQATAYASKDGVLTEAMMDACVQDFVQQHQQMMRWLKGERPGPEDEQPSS
# Compound: CN[C@@H]1C[C@H]2O[C@@](C)([C@@H]1OC)n1c3ccccc3c3c4c(c5c6ccccc6n2c5c31)C(=O)NC4 [staurosporine]
# Experiment: log2 fold change of tryptic peptide abundance, ligand vs vehicle (limited proteolysis) (log2 ratio); higher = more trypsin-susceptible (destabilized)
# Settings: ligand concentration: 20 uM; sample: K562 cleared lysate; digestion: 4 min, 22 C (HT-PELSA RT4min, Orbitrap Astral)
row,Target,log2 fold change
1,"KLHL22 (peptide sequence: LPAQPSHPHCVNNTYR, peptide start residue: 13) (UniProt Q53GT1)",-0.0696
2,"UniProt Q5TAX3 (peptide sequence: SCKVNAANLPGPK, peptide start residue: 72)",-0.367
3,"UniProt Q5T2W1 (peptide sequence: GLPGSFIKEVQK, peptide start residue: 280)",0.0475
4,"ANKRD39 (peptide sequence: CDAQTHGGATALHR, peptide start residue: 90) (UniProt Q53RE8)",0.393
5,"HS1BP3 (peptide sequence: HRPEDVVQFLVSK, peptide start residue: 57) (UniProt Q53T59)",-0.133
6,"UniProt Q53HC9 (peptide sequence: VLTCAAVWR, peptide start residue: 92)",-0.192
7,"CC2D1B (peptide sequence: SQDLEQAK, peptide start residue: 557) (UniProt Q5T0F9)",-0.165
8,"ANO6 (peptide sequence: MIEAVDNNLRPK, peptide start residue: 897) (UniProt Q4KMQ2)",-0.244
9,"PREPL (peptide sequence: DLQPVKQENEKPLPENMDAFEK, peptide start residue: 74) (UniProt Q4J6C6)",0.469
10,"UniProt Q5HY98 (peptide sequence: HRNDFVDFPLLSQEQK, peptide start residue: 164)",-0.217
11,"UniProt Q5T2N8 (peptide sequence: ITVLEALR, peptide start residue: 339)",-0.184

# A few values from the list:
# Value for PREPL (peptide sequence: DLQPVKQENEKPLPENMDAFEK, peptide start residue: 74) (UniProt Q4J6C6) under log2 fold change: 0.469
# Value for ANO6 (peptide sequence: MIEAVDNNLRPK, peptide start residue: 897) (UniProt Q4KMQ2) under log2 fold change: -0.244
